Measurements published in PMC12849132.

Molecular target: T1, PhaR (Ralstonia eutropha H16 (Cupriavidus necator)) (UniProt Q0KBP6)
T1 sequence (looked up, limits assumed): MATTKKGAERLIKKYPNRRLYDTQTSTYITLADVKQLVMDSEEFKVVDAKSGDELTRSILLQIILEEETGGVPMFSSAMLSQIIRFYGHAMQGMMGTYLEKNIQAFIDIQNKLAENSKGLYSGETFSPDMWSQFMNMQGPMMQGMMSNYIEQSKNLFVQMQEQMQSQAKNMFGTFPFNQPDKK
Assay: EMSA
Conditions: bound less strongly than F4, shifted at lower PhaR than single sites, supramolecular complexes; EMSA: 0-250 ng PhaR, ~75 ng FAM-DNA, 5 uL master mix (1.75 uL 10x TBE, 0.25 uL 10 mg/mL herring sperm DNA, 3 uL DNA), 30 min at 37 C; 7.5% native PAGE; recombinant protein; label: 5'-FAM on downstream primer; probe letters rebuilt from the primers and the genome

“TCCGCCGTCAAAAGCCATGTTCGTCAGCGCGAACAGTTGGTTCAGACTGGACTTTTGCACTGCAGCAAATTGCTCGGGCATAAAAGGGGACATGCAAAATCTCCTGTGGATTGATCGAACGGATTCGCGCAACAGATTGCAACGTGAATCCGCTTCGGTTTGGCTTCCGGATTGACAGCGCCACCAATCCTGCAGCGCAGCATCCGAGTGCGAATCCTAGAGGGTTTCCTCTAATTTGATCCCTAGGTATATACCCAAAAAGTCTTTAAAACAGGACAATAAAAGTGCATCGTGAATTCGAT (double strand) [F5 (BS2+BS3, phaP3)]”: binds.

For at least one entry, the source does not settle the construct or the ends of the probe. Where a protein sequence is shown, tags need not be part of it.
